Assay results from patent US8592418B2, “5-aryl isoxazolines for controlling pests” (priority 2010, dated 2013).
Some results were stated once for a whole list of compounds, not compound by compound.

What was measured:
[1] = system: Rhipicephalus sanquineus nymphs; assay: Activity in vivo against Rhipicephalus sanquineus nymphs on Mongolian gerbils (per oral application); settings: 100 mg/kg orally by gavage; Mongolian gerbils (Meriones unguiculatus); nymphs counted seven days after infestation
[2] = system: Rhipicephalus sanquineus nymphs; assay: Activity in vivo against Rhipicephalus sanquineus nymphs on Mongolian gerbils (spray application); settings: 100 mg/kg spray application; Mongolian gerbils (Meriones unguiculatus); infested day +1 (+2); nymphs counted seven days after infestation
[3] = system: Ctenocephalides felis (cat flea); assay: Activity in vivo against Ctenocephalides felis (cat flea) on Mongolian gerbils (per oral application); settings: 100 mg/kg orally by gavage; Mongolian gerbils (Meriones unguiculatus); evaluated 48 h after infestation

Structure (SMILES)	efficacy (EC90), tick number reduction vs placebo (Abbot's formula) [1]	efficacy (EC80), tick number reduction vs placebo (Abbot's formula) [2]	efficacy (EC90), live fleas vs placebo (Abbot's formula) [3]
CSCC(=O)NCc1sc(C2=NOC(c3cc(Cl)cc(Cl)c3)(C(F)(F)F)C2)cc1C (stereo not shown) [Compound 1.10, N-{5-[5-(3,5-dichloro-phenyl)-5-trifluoromethyl-4,5-dihydro-isoxazol-3-yl]-3-methyl-thiophen-2-ylmethyl}-2-methylsulfanyl-acetamide]	more than 90%	more than 80%	more than 90%
CCC(=O)NC(C)c1sc(C2=NOC(c3cc(Cl)cc(Cl)c3)(C(F)(F)F)C2)cc1C (stereo not shown) [Compound 1.49, N-(1-{5-[5-(3,5-dichloro-phenyl)-5-trifluoromethyl-4,5-dihydro-isoxazol-3-yl]-3-methyl-thiophen-2-yl}-ethyl)-propionamide]		more than 80%	
